# Measurements reported in PubChem BioAssay AID652272 (Drosophila RNAi Screening Center, 2013).
# Assay: 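Genes whose knock-down decreases or increases Hedgehog reporter output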 (primary screen)
# System: Drosophila clone 8 (Cl8) cells
# Reagent: long dsRNA against Drosophila genes
# Read-out: 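Firefly light from a Hedgehog-responsive ptc promoter reporter and Renilla reference light, both read on a plate reader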
# Scale: firefly Hh reporter signal: higher = more ptc reporter light; Renilla reference signal: higher = more Renilla control light
# Hit rule: 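Hit when the z-score averaged over two replicates is under -2 or over +3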
# Meaning of the calls: active = hit: reporter lowered or raised; inactive = not a hit
# In all, the deposit lists about 21,000 reagents; this is an unselected part of those that have a named target and a result. Over the whole deposit, 503 (2.4%) got an active call. 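Raw plate light values, not normalised; calls rest on replicate z-scores that were not deposited; hits include reporter decreases as well as increases.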 The numbers tell different reagents against one gene apart. A plus sign joins genes that one reagent is predicted to hit. Reagent sequences are not shown. Not stated in the record: the amount of reagent, the time to read-out.
Gene,dsRNA no.,"firefly Hh reporter signal, replicate 1","firefly Hh reporter signal, replicate 2","firefly Hh reporter signal, replicate 3","Renilla reference signal, replicate 1","Renilla reference signal, replicate 2",Call
CG10208 (GeneID 42814),1,5.29e5,1.30e5,,25067,4182,inactive
mRpS6 (GeneID 38535),1,65120,45228,,6199,2869,inactive
CG11317 (GeneID 43676),1,81657,92307,,1840,2444,inactive
asRNA:CR43259 + CG31089,1,6.54e5,1.04e5,,32320,3203,inactive
krz (GeneID 53554),1,82742,2.33e5,,3046,8198,inactive
Ance-2 (GeneID 34806),1,1.39e5,45712,,3589,3993,inactive
CG14852 (GeneID 41765),1,1.27e5,99588,,4208,2552,inactive
CG16890 (GeneID 34781),1,63145,81648,,2857,3507,inactive
CG9072 (GeneID 32443),1,78976,2.31e5,,2956,9144,inactive
Indy-2 + CG33934,1,74073,78802,,3696,3515,inactive
Indy-2 + CG33934,2,4.93e5,1.41e5,,27504,4112,inactive
CG42525 (GeneID 8674097),1,5.64e5,1.07e5,1.36e5,5531,2928,inactive
CG13375 (GeneID 30976),1,92829,2.20e5,,2634,7651,inactive
CG7059 (GeneID 42626),1,1.02e6,1.78e5,,49661,4321,inactive
Sems (GeneID 40315),1,1.39e5,1.45e5,,5416,4439,inactive
CG3770 (GeneID 37991),1,74336,47987,,3258,2349,inactive
CG15695 (GeneID 42468),1,6.69e5,77456,,32999,1883,inactive
CG34160 (GeneID 5740175),1,5.13e5,2.24e5,,25365,8727,inactive
fok (GeneID 44380),1,85578,43165,,2364,4688,inactive
Suv3 (GeneID 40543),1,1.21e5,75488,,4592,3000,inactive
CG3792 (GeneID 33717),1,1.26e5,42909,,3272,4539,inactive
SCCRO3 (GeneID 36426),1,63276,51091,,1773,3721,inactive
CG9692 (GeneID 39865),1,1.09e5,,,2113,5604,inactive
CG9691 (GeneID 31923),1,88157,1.79e5,,2365,7606,inactive
CG3581 (GeneID 42315),1,4.99e5,72412,,23447,1796,inactive
CG6304 (GeneID 35032),1,56033,38844,,2666,1700,inactive
CG33640 (GeneID 3772680),1,6.62e5,2.31e5,,31993,8995,inactive
CG31050 (GeneID 318571),1,59956,2.23e5,,14354,5480,inactive
CG34408 (GeneID 31953),1,88333,85104,,2235,2210,inactive
Ndfip (GeneID 326197),1,1.19e5,67437,,4421,2838,inactive
mms4 (GeneID 36136),1,91298,43863,,2482,4013,inactive
tomboy20 (GeneID 41285),1,64069,1.16e5,,2000,2800,inactive
Trs33 (GeneID 41866),1,47937,64288,,1277,1523,inactive
cysu (GeneID 42100),1,75409,83846,,1888,1996,inactive
RpL36A (GeneID 34098),1,46281,22838,,2146,3165,active
CG31007 (GeneID 318553),1,4.36e5,1.79e5,,23218,3861,inactive
Cdk9 (GeneID 37586),1,49122,38234,,1844,4663,active
lobo (GeneID 4379864),1,5.72e5,77818,,28347,5920,inactive
lobo (GeneID 4379864),2,5.03e5,78653,,26496,5963,inactive
